Results on 1 substance are retold here after PMC8092259.

Sequences of proteins named here, by UniProt entry; tags and fusion partners are left off.
UniProt Q14258: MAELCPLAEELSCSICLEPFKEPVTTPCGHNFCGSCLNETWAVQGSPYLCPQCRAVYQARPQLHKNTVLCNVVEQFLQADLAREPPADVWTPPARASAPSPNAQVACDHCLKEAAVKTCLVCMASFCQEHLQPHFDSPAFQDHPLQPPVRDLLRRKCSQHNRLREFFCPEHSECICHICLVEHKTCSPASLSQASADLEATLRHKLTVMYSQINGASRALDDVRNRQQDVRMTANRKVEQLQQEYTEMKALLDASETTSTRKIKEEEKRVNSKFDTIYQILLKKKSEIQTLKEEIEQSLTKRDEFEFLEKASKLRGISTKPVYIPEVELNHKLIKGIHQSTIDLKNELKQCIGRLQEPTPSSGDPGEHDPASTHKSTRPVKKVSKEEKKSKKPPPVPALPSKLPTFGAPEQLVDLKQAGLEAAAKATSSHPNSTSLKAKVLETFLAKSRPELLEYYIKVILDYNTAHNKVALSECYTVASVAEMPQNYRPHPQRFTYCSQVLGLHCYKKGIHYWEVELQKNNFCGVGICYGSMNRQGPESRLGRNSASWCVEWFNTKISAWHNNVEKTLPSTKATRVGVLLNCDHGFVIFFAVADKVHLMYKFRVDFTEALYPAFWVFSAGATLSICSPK

No constants are given. Whether binding was seen depends on the method and setting. Binding seen in cells or lysates may run through a third protein. Where a sequence is shown, tags or fusion partners need not be part of it.

The test addresses T1, FLAG-tagged JCV large T antigen (TAg) (JC virus (JCV)) (UniProt P03072).
T1 sequence: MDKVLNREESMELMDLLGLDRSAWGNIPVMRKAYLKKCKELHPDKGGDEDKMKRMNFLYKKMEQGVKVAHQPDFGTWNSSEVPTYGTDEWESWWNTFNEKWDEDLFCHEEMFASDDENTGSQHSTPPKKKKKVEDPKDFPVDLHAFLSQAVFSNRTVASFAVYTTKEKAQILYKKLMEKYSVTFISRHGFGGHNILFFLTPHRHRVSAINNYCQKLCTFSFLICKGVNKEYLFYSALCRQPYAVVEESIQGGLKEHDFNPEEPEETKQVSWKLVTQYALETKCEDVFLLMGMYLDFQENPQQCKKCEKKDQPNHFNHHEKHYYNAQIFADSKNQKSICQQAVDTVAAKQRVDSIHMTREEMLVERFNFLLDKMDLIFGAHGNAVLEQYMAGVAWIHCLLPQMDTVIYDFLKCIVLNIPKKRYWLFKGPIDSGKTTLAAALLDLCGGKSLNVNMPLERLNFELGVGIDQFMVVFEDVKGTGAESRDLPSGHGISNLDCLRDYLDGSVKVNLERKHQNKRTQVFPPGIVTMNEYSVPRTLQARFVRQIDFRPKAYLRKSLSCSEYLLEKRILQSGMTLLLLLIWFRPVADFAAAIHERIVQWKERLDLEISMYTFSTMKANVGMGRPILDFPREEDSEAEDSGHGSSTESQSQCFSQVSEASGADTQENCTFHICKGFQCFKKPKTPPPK
The experiment in a line: co-IP.

For the substance “endogenous TRIM25 (HEK 293T cells) (from UniProt Q14258 1-630)”, the binding entry is reported as “no binding”.
